In article PMC4682985:
For at least one entry, the source does not settle the construct or the ends of the probe. Where cells or extracts were used, other partners may take part. At least one verdict was read from the data and is not stated in words by the source.

The chains behind the UniProt entries cited, without tags or fusion partners.
UniProt P03372, whole entry: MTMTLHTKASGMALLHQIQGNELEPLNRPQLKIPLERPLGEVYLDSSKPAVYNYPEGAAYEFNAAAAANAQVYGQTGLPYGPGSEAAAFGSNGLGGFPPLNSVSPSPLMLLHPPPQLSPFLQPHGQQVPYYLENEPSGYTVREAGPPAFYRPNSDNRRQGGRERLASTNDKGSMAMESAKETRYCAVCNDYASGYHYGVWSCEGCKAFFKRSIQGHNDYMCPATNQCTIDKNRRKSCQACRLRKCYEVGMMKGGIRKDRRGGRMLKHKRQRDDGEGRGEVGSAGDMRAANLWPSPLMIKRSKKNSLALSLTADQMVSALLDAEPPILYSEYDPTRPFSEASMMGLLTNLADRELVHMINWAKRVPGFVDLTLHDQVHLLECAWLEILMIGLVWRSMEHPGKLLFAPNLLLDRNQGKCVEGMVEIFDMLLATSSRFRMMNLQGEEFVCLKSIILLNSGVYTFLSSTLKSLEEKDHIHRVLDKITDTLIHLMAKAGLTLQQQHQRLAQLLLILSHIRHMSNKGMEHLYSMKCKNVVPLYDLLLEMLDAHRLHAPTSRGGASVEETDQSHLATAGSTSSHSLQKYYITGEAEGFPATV

Target: Estrogen receptor alpha (ERa) (UniProt P03372)
Test: EMSA supershift (nuclear extract)
Details: anti-ERa, extract from 10 nM E2-treated cells; LightShift Chemiluminescent EMSA kit; 3 ug nuclear extract, 20 fmol biotin probe, 100-fold competitor; 6% or 4% (supershift) native gel, 0.5x TBE; binding buffer; protein in an extract; label: 3' biotin

Sequence: GACGACGGAGAGCGGCGGGCCC (double strand) [AQP5 promoter ERE oligonucleotide]
- binding result: binds
